The source holds more than one record for some entries. This is not the full list of results. There may be further records. The records of an entry do not match, cause unknown; some may be repeats, others may stem from another dose, organism or construct than stated.
Target: Chk1 (Homo sapiens, UniProt O14757)
Experiment: HCIF-CETSA (CETSA by immunofluorescence), low well volume heating, HT29 cells
Conditions: EC50 by HCIF-CETSA or CETSA vs autophosphorylation IC50

By UniProt entry, the sequences of proteins in these tests, tags left out.
UniProt O14757, whole entry: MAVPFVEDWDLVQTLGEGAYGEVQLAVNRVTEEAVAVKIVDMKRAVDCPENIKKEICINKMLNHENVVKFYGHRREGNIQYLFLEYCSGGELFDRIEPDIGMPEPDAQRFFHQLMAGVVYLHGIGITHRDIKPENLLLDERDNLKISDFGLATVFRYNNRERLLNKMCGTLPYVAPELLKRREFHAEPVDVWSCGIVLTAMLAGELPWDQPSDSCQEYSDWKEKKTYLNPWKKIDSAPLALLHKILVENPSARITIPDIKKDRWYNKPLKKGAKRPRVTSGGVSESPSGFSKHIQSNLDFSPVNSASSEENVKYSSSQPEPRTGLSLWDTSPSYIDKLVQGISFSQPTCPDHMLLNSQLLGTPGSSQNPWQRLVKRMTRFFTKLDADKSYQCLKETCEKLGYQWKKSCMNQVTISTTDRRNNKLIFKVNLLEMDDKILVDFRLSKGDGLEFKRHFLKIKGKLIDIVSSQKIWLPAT

Q: How did the “Fold by which HCIF-CETSA / CETSA classic EC50 is greater than the autophosphorylation IC50” value turn out when `CN(C)CC(C)(C)COc1ccc2[nH]c(-c3cc(NC(=O)c4cnn(Cc5ccccc5)c4)c[nH]c3=O)cc2c1` [V158411] was run?
A: The value was 23 fold and 12 fold.

From article PMC5884524, “A high content, high throughput cellular thermal stability assay for measuring drug-target engagement in living cells” (PLoS ONE, 2018)
